# Source: PubChem BioAssay AID2685 (National Center for Advancing Translational Sciences (NCATS), 2010)
# The list shows a part of the results. These are further read-outs of the screen, such as a control signal, another cell line or another target. No call is given for them. Most of these compounds were active or inconclusive in the main read-out, so they are no random draw. The note in brackets gives the kind of curve behind each potency; many fits are weak.
# Assay: qHTS Assay for Lipid Storage Modulators in Drosophila S3 Cells;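 as to cell number change: cells counted by Cell Tracker Red CMTPX staining in the red channel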
# Settings: BODIPY lipid droplet fluorescence, 18-24 h; for cell number change: measured here: cell count max response, cells fed with added oleic acid
# Summary of the method: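 Drosophila S3 cells got compounds at several concentrations plus oleic acid (400 uM solution). Laser-scanning cytometry with 488 nm excitation read lipid droplets at 500-530 nm and cells at 575-640 nm. Percent activity was relative to 20 uM Triacsin C.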
# [1] = measured here: lipid fluorescence (Fed channel) AC50, cells fed with added oleic acid
# [2] = measured here: cell number channel AC50, cells fed with added oleic acid
smiles,measurement,setting,value
Cn1nnc2cc(C(=O)NC3CCCCC3)ccc21,cell number change,,8.86%
O=S(=O)(c1ccc(C2CCCCC2)cc1)N1CCOCC1,cell number change,,-18%
same,AC50,[1],"16.4 µM [rising, single point]"
COc1cc(Cl)c(C)cc1NC(=O)Cc1ccc(OC)c(OC)c1,cell number change,,2.15%
same,AC50,[2],"2.06 µM [falling, partial curve]"
same,AC50,[1],"3.26 µM [falling, partial curve]"
O=C(CN(c1cccc(C(F)(F)F)c1)S(=O)(=O)c1ccc(Cl)c([N+](=O)[O-])c1)NCc1ccccc1,cell number change,,20.5%
same,AC50,[2],"3.26 µM [rising, single point]"
same,AC50,[1],"10.3 µM [falling, partial curve, poor fit]"
O=C1Nc2ccccc2S/C1=C/Nc1cccc(Cl)c1,cell number change,,-14.6%
same,AC50,[2],"0.517 µM [rising, single point]"
same,AC50,[1],"0.116 µM [rising, full curve, poor fit]"
C/C(=N\O)c1ccc2c3ccccc3n(C)c2c1,cell number change,,-20.4%
same,AC50,[1],"29.1 µM [falling, single point]"
COC(=O)c1ccccc1OCCN1CCCCCC1,cell number change,,-36.7%
same,AC50,[2],"29.1 µM [falling, single point]"
same,AC50,[1],"32.6 µM [falling, single point]"
Cc1ccc(NC(=O)COC(=O)c2ccc3c(c2)NC(=O)C2CCCN32)cc1C (centres undefined),cell number change,,47.7%
same,AC50,[2],"29.1 µM [rising, single point]"
same,AC50,[1],"29.1 µM [rising, single point]"
CCSC(=S)Nc1c(C)n(C)n(-c2ccccc2)c1=O,cell number change,,-26.7%
same,AC50,[1],"23.1 µM [falling, single point]"
N#C/C(=C/c1ccc(N2CCOCC2)o1)c1nc2ccccc2[nH]1,cell number change,,-101%
same,AC50,[2],"20.6 µM [falling, single point]"
same,AC50,[1],"16.4 µM [falling, partial curve]"
CCc1ccc2nc(N3CCN(C(=O)C(C)(C)C)CC3)sc2c1,cell number change,,-14.4%
CCn1nnnc1SCC(=O)N1N=C(c2cccs2)CC1c1cccs1 (centres undefined),cell number change,,-25%
same,AC50,[1],"6.51 µM [falling, single point]"
COC(=O)c1c(NC(=O)CN2C(=O)NC3(CCc4ccccc4C3)C2=O)sc2c1CCCCC2 (centres undefined),cell number change,,29.7%
same,AC50,[1],"5.8 µM [rising, partial curve]"
NNC(=O)c1ccc2ccccc2n1,cell number change,,-14.5%
COc1ccc(CNC(=O)CNC(=O)[C@@H]2Cc3ccccc3CN2)cc1,cell number change,,2.83%
CCCCCC1CC(CC(=O)Nc2ccc([N+](=O)[O-])cc2)C(=O)O1 (centres undefined),cell number change,,-33.2%
same,AC50,[2],"23.1 µM [falling, single point]"
same,AC50,[1],"18.4 µM [falling, partial curve]"
CC(c1ccccc1)C1CC(=O)N(c2ccc(C(=O)O)cc2)C1=O (centres undefined),cell number change,,-3.7%
CCOc1ccc2c(c1)c1nnc(SCC(=O)NC3CC3)nc1n2C,cell number change,,30.9%
C/C(=N\NC(=O)Cc1ccc([N+](=O)[O-])cc1)c1cccnc1,cell number change,,7.43%
same,AC50,[2],"2.59 µM [rising, partial curve, poor fit]"
CC(NC(=O)c1ccccc1Cl)C(=O)N1CCN(Cc2ccc3c(c2)OCO3)CC1 (centres undefined),cell number change,,-19.9%
same,AC50,[1],"10.3 µM [falling, single point]"
COc1ccc(C(C(=O)NCc2ccccc2)N(Cc2ccco2)C(=O)c2snc(C(N)=O)c2N)cc1OC (centres undefined),cell number change,,-10.7%
same,AC50,[1],"3.66 µM [falling, partial curve]"
COc1ccc(NC(=O)CN2CCC(C(=O)c3ccc(C)cc3)CC2)c(OC)c1,cell number change,,13.9%
same,AC50,[1],"29.1 µM [rising, single point]"
O=C(CCC(=O)N1CCN(c2ccccc2F)CC1)N1CCN(c2ccc(F)cc2)CC1,cell number change,,0.275%
same,AC50,[1],"29.1 µM [rising, single point]"
COc1ccc(SCCN2CC[C@@H](O)CCC2=O)cc1,cell number change,,1.81%
same,AC50,[1],"29.1 µM [rising, single point]"
CCOC(=O)Cc1csc(NC(=O)c2sc3nc4cc(C)ccc4cc3c2N)n1,cell number change,,-28.4%
same,AC50,[1],"23.1 µM [falling, partial curve]"
Cc1ccc(N(C)S(=O)(=O)c2ccc(-c3cc(C)no3)s2)cc1,cell number change,,18.2%
same,AC50,[1],"2.31 µM [rising, single point]"
O=C1OC(N2CCN(c3ccccn3)CC2)c2ccccc21 (centres undefined),cell number change,,-89.8%
same,AC50,[2],"29.1 µM [falling, single point]"
same,AC50,[1],"29.1 µM [falling, single point]"
COCCCNC(=O)C1CCC(CNS(=O)(=O)c2ccc(Cl)cc2)CC1 (centres undefined),cell number change,,-56.6%
same,AC50,[2],"29.1 µM [falling, single point]"
Cc1ccc(S(=O)(=O)N(CC(=O)NCc2ccco2)Cc2ccccc2F)cc1,AC50,[2],"6.51 µM [rising, single point]"
same,AC50,[1],"0.0058 µM [falling, full curve, poor fit]"
C=CCSC1=C(C#N)C(c2ccccc2OC)CC(=O)N1 (centres undefined),cell number change,,-11.5%
same,AC50,[1],"2.06 µM [rising, full curve, poor fit]"
Clc1ncnc2scc(C3COc4ccccc4O3)c12 (centres undefined),cell number change,,-44.7%
same,AC50,[2],"23.1 µM [falling, partial curve]"
same,AC50,[1],"25.9 µM [falling, partial curve]"
COCc1nnc(NC(=O)c2ccc(S(=O)(=O)N3CCCC3)cc2)o1,cell number change,,-35.6%
same,AC50,[2],"35.5 µM [falling, single point]"
CCOc1ccc(C(C)=O)cc1COC(=O)C1=COCCO1,cell number change,,-30.5%
same,AC50,[2],"2.91 µM [falling, full curve, poor fit]"
CCOc1nc(-c2ccc(Cl)cc2Cl)ccc1C#N,AC50,[2],"2.59 µM [rising, partial curve]"
same,AC50,[1],"0.82 µM [rising, single point]"
OC(COc1ccccc1)CN1CCCCCC1 (centres undefined),cell number change,,5.63%
same,AC50,[2],"1.46 µM [rising, partial curve, poor fit]"
CCOC(=O)CCc1c(C)c2ccc(OCc3ccc([N+](=O)[O-])cc3)cc2oc1=O,cell number change,,0.417%
same,AC50,[2],"0.231 µM [falling, full curve]"
same,AC50,[1],"1.84 µM [falling, partial curve]"
Cc1ccc(OCC(=O)Nc2cc(S(=O)(=O)N3CCOCC3)ccc2Cl)c([N+](=O)[O-])n1,cell number change,,-17%
same,AC50,[1],"1.03 µM [falling, full curve, poor fit]"
COc1ccc(C(=O)COC(=O)C2CCC(=O)N2)cc1 (centres undefined),cell number change,,4.96%
same,AC50,[2],"2.31 µM [falling, single point]"
same,AC50,[1],"3.66 µM [falling, single point]"
CCOc1ccc(CN(Cc2ccco2)C(c2cccs2)c2nnnn2C(C)(C)C)cc1 (centres undefined),cell number change,,-13.4%
CCOc1cc(C(=O)NCc2nnc(SCC(=O)OC)n2C)cc(OCC)c1OCC,cell number change,,-33.1%
same,AC50,[2],"32.6 µM [falling, single point]"
same,AC50,[1],"29.1 µM [falling, single point]"
O=C(NCC1COc2ccccc2O1)c1cccc(S(=O)(=O)N2CCCCC2)c1 (centres undefined),AC50,[1],"16.4 µM [falling, single point]"
COCCOC(=O)c1c(C)nc(SCC(=O)Nc2cccc3ccccc23)c(C#N)c1-c1ccco1,cell number change,,26.3%
same,AC50,[2],"2.59 µM [rising, full curve, poor fit]"
same,AC50,[1],"3.26 µM [rising, partial curve]"
COc1ccc(CCNC(=O)C(C)OC(=O)c2ccco2)cc1OC (centres undefined),AC50,[1],"2.06 µM [falling, full curve]"
COCCn1c(SCC(=O)Nc2ccccc2C(F)(F)F)nc2ccccc2c1=O,cell number change,,18.8%
same,AC50,[1],"29.1 µM [rising, single point]"
CC(c1ccccc1)n1cc(C(=O)NCc2ccncc2)nn1 (centres undefined),cell number change,,5.25%
same,AC50,[1],"1.03 µM [falling, partial curve]"
Cc1cnn(Cc2ccccc2)c1N,cell number change,,-2.55%
same,AC50,[1],"1.84 µM [falling, partial curve]"
O=C(Nc1ccc(S(=O)(=O)Nc2nccs2)cc1)c1c(F)c(F)c(F)c(F)c1F,cell number change,,-31.5%
same,AC50,[2],"1.16 µM [falling, single point]"
same,AC50,[1],"29.1 µM [falling, single point]"
Cc1ccc([C@@H]2[C@@H]3C(=O)N(C)C(=O)[C@@H]3[C@]3(C)C(=O)N(Cc4ccccn4)CC(=O)N23)o1,cell number change,,5.5%
same,AC50,[1],"32.6 µM [rising, single point]"
O=C(COc1nncc2ccccc12)NCCC1=CCCCC1,cell number change,,1.06%
same,AC50,[2],"0.731 µM [falling, full curve, poor fit]"
same,AC50,[1],"1.64 µM [rising, partial curve]"
Cc1ccc(NC(=O)CSc2nnc(C3COc4ccccc4O3)o2)c(Cl)c1 (centres undefined),cell number change,,16.2%
same,AC50,[1],"1.84 µM [rising, full curve]"
Cc1cccc(C)c1NC(=O)CNC(=O)Cc1ccc(Br)cc1,cell number change,,40.6%
same,AC50,[2],"3.66 µM [falling, single point]"
same,AC50,[1],"23.1 µM [rising, single point]"
COc1ccc2cc(C(=O)C3CCCN(C(=O)c4cncs4)C3)ccc2c1 (centres undefined),cell number change,,25.2%
same,AC50,[2],"6.51 µM [rising, single point]"
Cc1ccc(NC(=O)c2ccc(NS(=O)(=O)c3ccc4[nH]c(=O)[nH]c4c3)cc2)nc1,cell number change,,-30.6%
same,AC50,[2],"4.61 µM [falling, full curve, poor fit]"
COc1ccc2[nH]c(=O)c(CN(CC3CCCO3)C(=O)Nc3ccccc3OC)cc2c1 (centres undefined),cell number change,,-3.78%
same,AC50,[1],"1.84 µM [rising, full curve]"
Cc1ccc(SC[C@H](CC(C)C)N2CCN(CCc3ccccc3)CCC2=O)cc1,cell number change,,-17.7%
same,AC50,[1],"23.1 µM [falling, partial curve]"
COc1ccc2[nH]c(C(O)(Cc3cccnc3)Cc3cccnc3)cc2c1,cell number change,,18.6%
same,AC50,[1],"1.46 µM [rising, partial curve]"

# Retrieved one by one from the list above (four):
smiles,measurement,setting,value
Cc1cccc(C)c1NC(=O)CNC(=O)Cc1ccc(Br)cc1,cell number change,,40.6%
CCOc1nc(-c2ccc(Cl)cc2Cl)ccc1C#N,AC50,[1],"0.82 µM [rising, single point]"
CCOC(=O)CCc1c(C)c2ccc(OCc3ccc([N+](=O)[O-])cc3)cc2oc1=O,cell number change,,0.417%
COCc1nnc(NC(=O)c2ccc(S(=O)(=O)N3CCCC3)cc2)o1,cell number change,,-35.6%

# Some of the entries so far, with tabs:
smiles	measurement	setting	value
Cc1ccc(NC(=O)CSc2nnc(C3COc4ccccc4O3)o2)c(Cl)c1 (centres undefined)	AC50	[1]	1.84 µM [rising, full curve]
Cc1cccc(C)c1NC(=O)CNC(=O)Cc1ccc(Br)cc1	cell number change		40.6%
